In patent US20130089557A1 (SAMSUNG ELECTRONICS, published 2013) one finds binding data, which are given here for 2 molecules.

The chains behind the UniProt entries cited, without tags or fusion partners. Residues count along the entry.
UniProt P08581, residues 25-932: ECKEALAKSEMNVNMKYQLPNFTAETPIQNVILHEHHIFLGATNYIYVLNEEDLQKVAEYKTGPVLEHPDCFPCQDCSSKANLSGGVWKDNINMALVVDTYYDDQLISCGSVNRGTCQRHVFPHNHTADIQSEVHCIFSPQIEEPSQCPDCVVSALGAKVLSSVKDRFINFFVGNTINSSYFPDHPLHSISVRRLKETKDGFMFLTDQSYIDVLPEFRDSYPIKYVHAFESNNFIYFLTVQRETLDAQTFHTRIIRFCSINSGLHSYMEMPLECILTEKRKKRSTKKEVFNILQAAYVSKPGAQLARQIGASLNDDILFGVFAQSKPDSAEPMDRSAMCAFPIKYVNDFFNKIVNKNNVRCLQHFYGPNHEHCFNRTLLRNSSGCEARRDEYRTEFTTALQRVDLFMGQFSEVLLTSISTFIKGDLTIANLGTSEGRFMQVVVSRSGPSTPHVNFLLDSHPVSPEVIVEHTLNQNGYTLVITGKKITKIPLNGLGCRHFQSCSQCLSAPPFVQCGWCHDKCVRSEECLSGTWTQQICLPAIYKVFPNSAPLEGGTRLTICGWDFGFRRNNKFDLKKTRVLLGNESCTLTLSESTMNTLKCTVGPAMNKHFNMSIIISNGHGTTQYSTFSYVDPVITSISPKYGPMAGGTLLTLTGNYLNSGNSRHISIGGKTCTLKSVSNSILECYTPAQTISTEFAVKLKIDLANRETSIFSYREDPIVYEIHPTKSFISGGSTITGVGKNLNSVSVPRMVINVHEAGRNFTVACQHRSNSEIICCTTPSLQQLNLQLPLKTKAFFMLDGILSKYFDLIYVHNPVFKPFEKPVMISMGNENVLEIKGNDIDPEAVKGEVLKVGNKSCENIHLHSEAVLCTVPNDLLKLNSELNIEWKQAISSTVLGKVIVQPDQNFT

Results are given in words; binding and its absence hold for the method and conditions named. Some results given as binding are weak or reduced against the parent protein; the word gives no strength.

The test addresses T1, human c-Met protein (human, UniProt P08581 25-932, limits assumed).
T1 construct: also called c-Met antigen
The test can be described thus: scFv library screening, method not described.

B1: YC374 (scFv)
scFv: EVQLVESGGGLVQPGGSLRLSCAASGFTFTDYYMSWVRQAPGKGLEWLGFIRNKANGYTTEYSASVKGRFTISRDNSKNTLYLQMNSLRAEDTAVYYCARDNWLTYWGQGTLVTVSSGLGGLGGGGSGGGGSGGSSGVGSDIQMTQSPSSLSASVGDRVTITCKSSQSLLASGNQNNYLAWHQQKPGKAPKMLIIWASTRVSGVPSRFSGSGSGTDFTLTISSLQPEDFATYYCQQSYSAPLTFGQGTKVEIKR
For the molecule B1, the binding entry is listed as “binds”.

B2: YC354 (scFv)
scFv: EVQLVESGGGLVQPGGSLRLSCAASGFTFTDYYMSWVRQAPGKGLEWLGFIRNKANGYTTEYSASVKGRFTISRDNSKNTLYLQMNSLRAEDTAVYYCARDNWLSYWGQGTLVTVSSGLGGLGGGGSGGGGSGGSSGVGSDIQMTQSPSSLSASVGDRVTITCKSSQSLLASGNQNNYLAWHQQKPGKAPKMLIIWASTRVSGVPSRFSGSGSGTDFTLTISSLQPEDFATYYCQQSYSAPLTFGQGTKVEIKR
In the case of B2, the binding entry is reported as “binds”.
